This is an account of results in publication PMC13043894.

Protein sequences, listed by entry. Tags and fused reporters are not part of them.
UniProt P34077: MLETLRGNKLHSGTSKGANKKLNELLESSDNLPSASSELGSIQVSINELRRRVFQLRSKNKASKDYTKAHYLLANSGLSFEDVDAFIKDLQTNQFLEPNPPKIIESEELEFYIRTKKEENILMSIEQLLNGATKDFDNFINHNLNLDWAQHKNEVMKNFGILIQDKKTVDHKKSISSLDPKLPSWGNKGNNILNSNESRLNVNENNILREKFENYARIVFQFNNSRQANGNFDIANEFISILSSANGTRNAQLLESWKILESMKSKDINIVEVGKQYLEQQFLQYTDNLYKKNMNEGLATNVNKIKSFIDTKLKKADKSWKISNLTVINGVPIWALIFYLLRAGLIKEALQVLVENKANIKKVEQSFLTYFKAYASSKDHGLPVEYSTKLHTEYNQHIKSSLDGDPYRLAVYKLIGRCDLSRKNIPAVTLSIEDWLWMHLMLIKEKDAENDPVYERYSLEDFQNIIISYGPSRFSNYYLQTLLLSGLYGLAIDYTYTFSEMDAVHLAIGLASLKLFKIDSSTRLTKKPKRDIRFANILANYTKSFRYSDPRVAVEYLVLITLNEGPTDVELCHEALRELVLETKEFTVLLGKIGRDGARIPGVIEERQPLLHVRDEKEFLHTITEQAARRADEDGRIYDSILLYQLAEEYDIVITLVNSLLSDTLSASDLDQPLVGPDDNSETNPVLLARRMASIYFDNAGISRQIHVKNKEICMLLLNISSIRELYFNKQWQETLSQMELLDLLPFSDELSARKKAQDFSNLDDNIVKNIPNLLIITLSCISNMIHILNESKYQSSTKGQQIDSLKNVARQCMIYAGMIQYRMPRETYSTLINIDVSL

Changes are numbered by the printed parent chain. Names and notes keep the numbering of the source. No constants are given. Whether binding was seen depends on the method and setting. Binding seen in cells or lysates may run through a third protein. Some results given as binding are weak or reduced against the parent protein; the word gives no strength. For some assays here: Sequences can lack the tags named with a protein.

Assay [1] has as its target T1, Brr6 (construct of the immunoprecipitation of Fig. EV1F) (S. cerevisiae) (UniProt P53062).
T1 sequence: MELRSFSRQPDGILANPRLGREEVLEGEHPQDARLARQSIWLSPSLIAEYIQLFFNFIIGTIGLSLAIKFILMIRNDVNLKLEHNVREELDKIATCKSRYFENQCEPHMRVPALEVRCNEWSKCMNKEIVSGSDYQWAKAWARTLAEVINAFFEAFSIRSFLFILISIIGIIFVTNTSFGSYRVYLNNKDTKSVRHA
Description: co-IP; yeast cells expressing BRL1 and BRR6 constructs lysed, precipitation with GFP-binder, immunoblot; which partner carried GFP is not told. A general note: A western blot detects proteins with antibodies after separation by electrophoresis.

The target in assay [2] is T2, brr6^L145E (S. cerevisiae) (UniProt P53062).
T2 sequence: T1 sequence with L145E
Described as above.

Assay [3] addresses Nic96-GFP (S. cerevisiae) (UniProt P34077). Description: co-IP; Nic96-GFP precipitated from yeast lysates on GFP-Trap (GFP nanobody) agarose beads, 2 h at 4 °C; lysis buffer 20 mM Tris-Cl pH 8.0, 150 mM NaCl, 5 mM MgCl2, 10% glycerol, 0.5% Triton X-100; immunoblot; cells with untagged NIC96 as control.

B1: Brl1 (construct of the immunoprecipitation of Fig. EV1F) (protein, UniProt P38770 1-471)
chain: MESFENLSIRDSFTSGMEHVDEELGGLSDLSISKQGPTLSPQLINRFMPHFPSSPSPLRNTLDFSAAKADEEEDDRMEIDEVDDTSFEEEYNNEPIETHTEATENAVVEEIEATPEERQKQEKNESQDQSVEEVENIVSPHRSTVIKALLSPTDLGVAAATKVEGVVPLPPSANQDDNESSNNNAEGEDIIRNEEVEDEIKSSLGNHKSSQYANAFDSEIIKRELRSRSKYQPIQVSFNTHNYFYSDKDGIKTYSLTKPNHNKIDEFYDQNEAFKLPKPWSPNSHPASRASYALMSYLQLFLNAITTVVIFSFILSFIIALQKDLKSTWEQRKHELQYESRICQEQYLTNRCNQTPGLPALGEQCAIWKQCMDRNNDIFFRARSTLSAKLFGDIINSFIDPLNWKTLFVIFCGVITWCFSSNFLLGFVRAKSYYGNGIKTYPLPSSPKSPTSEETHSSMTASGEDSHLLKQ
For the molecule B1, the binding entry in assay [1] and in assay [2] was “binds” in each case.

B2: Brl1 (untagged, overexpressed from pAdh1-BRL1 or pGal1-BRL1) (protein, UniProt P38770 1-471)
chain: B1 chain
As for B2, in assay [3], the binding result was “binds”.

B3: brl1^F391E (protein, UniProt P38770 1-471)
chain: B1 chain with F391E
Regarding B3, the binding entry in assay [1] and in assay [2] was “binds” each time.

B4: endogenous Brl1 (protein, UniProt P38770 1-471)
chain: B1 chain
On to B4, for which the binding result in assay [3] is recorded as “binds”.

B5: Brl1-HA (protein, UniProt P38770 1-471)
chain: B1 chain
On to B5, for which the binding entry in assay [3] is given as “binds”.

B6: Brr6^1-53–Brl1^300-471-HA (protein, UniProt P53062 1-53; P38770 300-471)
chain: MELRSFSRQPDGILANPRLGREEVLEGEHPQDARLARQSIWLSPSLIAEYIQLLFLNAITTVVIFSFILSFIIALQKDLKSTWEQRKHELQYESRICQEQYLTNRCNQTPGLPALGEQCAIWKQCMDRNNDIFFRARSTLSAKLFGDIINSFIDPLNWKTLFVIFCGVITWCFSSNFLLGFVRAKSYYGNGIKTYPLPSSPKSPTSEETHSSMTASGEDSHLLKQ
Consider B6, for which, in assay [3], the binding result is “no binding”.
